# Measurements as given in the supplement of paper PMC10849652.
# By UniProt entry, the sequences of proteins in these tests, tags left out. Where a name states a change or a piece, a line headed by the entry shows the natural chain unless it says otherwise.
# UniProt Q5JS37: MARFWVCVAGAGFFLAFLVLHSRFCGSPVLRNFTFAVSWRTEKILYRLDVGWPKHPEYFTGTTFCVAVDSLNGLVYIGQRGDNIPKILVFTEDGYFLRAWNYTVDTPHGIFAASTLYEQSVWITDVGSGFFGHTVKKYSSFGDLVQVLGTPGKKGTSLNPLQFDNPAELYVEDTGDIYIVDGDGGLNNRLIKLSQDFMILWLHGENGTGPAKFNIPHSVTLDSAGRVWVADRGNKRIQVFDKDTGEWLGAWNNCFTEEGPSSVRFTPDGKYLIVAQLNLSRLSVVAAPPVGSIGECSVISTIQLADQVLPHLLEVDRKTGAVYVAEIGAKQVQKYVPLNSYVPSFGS
# UniProt Q13952: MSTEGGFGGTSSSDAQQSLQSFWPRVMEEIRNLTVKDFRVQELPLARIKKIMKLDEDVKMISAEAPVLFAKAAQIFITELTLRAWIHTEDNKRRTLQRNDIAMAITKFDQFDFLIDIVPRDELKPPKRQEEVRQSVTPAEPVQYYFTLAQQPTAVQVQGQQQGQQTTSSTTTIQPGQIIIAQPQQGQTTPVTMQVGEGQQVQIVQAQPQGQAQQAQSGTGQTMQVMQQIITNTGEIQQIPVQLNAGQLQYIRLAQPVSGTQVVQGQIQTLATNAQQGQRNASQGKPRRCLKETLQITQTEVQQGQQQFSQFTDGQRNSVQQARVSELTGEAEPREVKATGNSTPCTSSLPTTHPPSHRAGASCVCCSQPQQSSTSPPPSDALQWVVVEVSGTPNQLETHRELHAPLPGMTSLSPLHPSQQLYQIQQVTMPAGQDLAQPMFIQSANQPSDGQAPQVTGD
# UniProt Q6P4R8, whole entry, looked up: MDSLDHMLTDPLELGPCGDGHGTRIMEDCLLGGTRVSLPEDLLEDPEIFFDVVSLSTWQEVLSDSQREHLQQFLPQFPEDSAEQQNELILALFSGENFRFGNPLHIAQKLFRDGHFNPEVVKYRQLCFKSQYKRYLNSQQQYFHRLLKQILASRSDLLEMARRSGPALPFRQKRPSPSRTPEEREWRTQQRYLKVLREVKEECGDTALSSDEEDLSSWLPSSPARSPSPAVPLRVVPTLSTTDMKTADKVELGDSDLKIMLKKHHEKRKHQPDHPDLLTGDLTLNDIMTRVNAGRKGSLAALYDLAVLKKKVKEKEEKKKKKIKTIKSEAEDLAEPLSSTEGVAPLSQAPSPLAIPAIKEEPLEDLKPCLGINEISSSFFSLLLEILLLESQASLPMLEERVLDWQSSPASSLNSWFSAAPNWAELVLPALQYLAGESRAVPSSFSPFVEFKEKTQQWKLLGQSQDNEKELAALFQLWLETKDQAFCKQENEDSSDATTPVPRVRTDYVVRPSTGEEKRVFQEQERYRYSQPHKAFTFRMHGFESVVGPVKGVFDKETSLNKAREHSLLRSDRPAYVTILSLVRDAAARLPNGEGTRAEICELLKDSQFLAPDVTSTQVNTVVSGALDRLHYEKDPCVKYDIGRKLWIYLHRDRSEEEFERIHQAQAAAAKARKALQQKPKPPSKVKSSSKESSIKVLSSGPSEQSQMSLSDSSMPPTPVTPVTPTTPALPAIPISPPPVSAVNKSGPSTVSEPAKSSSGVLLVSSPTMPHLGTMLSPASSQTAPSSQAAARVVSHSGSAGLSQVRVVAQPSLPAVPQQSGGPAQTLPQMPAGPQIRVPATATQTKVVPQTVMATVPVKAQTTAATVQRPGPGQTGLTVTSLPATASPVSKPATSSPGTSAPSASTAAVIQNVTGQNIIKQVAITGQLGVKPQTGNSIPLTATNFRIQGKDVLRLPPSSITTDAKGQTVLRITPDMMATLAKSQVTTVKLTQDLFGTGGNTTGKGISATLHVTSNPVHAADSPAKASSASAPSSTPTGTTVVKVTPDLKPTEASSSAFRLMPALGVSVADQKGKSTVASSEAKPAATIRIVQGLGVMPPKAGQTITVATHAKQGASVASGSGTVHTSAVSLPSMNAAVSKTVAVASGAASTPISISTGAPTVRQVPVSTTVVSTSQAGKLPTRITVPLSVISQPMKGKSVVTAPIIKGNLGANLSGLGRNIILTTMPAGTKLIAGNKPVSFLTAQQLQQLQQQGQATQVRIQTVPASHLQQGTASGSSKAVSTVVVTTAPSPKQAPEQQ
# UniProt Q92692, whole entry, looked up: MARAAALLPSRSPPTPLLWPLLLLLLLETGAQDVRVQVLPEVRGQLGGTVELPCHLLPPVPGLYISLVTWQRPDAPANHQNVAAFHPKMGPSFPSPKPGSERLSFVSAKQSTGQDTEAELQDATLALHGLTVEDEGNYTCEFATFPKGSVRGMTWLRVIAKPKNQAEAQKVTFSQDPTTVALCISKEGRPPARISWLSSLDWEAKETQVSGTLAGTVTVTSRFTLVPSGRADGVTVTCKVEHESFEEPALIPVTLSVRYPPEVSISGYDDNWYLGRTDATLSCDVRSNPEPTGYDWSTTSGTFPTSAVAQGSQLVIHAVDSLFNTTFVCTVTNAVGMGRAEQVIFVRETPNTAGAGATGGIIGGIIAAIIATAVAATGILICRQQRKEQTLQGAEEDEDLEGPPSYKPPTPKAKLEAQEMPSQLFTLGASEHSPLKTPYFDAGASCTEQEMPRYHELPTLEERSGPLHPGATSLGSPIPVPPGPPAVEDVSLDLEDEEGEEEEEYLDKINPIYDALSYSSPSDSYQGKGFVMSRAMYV
# UniProt O94916: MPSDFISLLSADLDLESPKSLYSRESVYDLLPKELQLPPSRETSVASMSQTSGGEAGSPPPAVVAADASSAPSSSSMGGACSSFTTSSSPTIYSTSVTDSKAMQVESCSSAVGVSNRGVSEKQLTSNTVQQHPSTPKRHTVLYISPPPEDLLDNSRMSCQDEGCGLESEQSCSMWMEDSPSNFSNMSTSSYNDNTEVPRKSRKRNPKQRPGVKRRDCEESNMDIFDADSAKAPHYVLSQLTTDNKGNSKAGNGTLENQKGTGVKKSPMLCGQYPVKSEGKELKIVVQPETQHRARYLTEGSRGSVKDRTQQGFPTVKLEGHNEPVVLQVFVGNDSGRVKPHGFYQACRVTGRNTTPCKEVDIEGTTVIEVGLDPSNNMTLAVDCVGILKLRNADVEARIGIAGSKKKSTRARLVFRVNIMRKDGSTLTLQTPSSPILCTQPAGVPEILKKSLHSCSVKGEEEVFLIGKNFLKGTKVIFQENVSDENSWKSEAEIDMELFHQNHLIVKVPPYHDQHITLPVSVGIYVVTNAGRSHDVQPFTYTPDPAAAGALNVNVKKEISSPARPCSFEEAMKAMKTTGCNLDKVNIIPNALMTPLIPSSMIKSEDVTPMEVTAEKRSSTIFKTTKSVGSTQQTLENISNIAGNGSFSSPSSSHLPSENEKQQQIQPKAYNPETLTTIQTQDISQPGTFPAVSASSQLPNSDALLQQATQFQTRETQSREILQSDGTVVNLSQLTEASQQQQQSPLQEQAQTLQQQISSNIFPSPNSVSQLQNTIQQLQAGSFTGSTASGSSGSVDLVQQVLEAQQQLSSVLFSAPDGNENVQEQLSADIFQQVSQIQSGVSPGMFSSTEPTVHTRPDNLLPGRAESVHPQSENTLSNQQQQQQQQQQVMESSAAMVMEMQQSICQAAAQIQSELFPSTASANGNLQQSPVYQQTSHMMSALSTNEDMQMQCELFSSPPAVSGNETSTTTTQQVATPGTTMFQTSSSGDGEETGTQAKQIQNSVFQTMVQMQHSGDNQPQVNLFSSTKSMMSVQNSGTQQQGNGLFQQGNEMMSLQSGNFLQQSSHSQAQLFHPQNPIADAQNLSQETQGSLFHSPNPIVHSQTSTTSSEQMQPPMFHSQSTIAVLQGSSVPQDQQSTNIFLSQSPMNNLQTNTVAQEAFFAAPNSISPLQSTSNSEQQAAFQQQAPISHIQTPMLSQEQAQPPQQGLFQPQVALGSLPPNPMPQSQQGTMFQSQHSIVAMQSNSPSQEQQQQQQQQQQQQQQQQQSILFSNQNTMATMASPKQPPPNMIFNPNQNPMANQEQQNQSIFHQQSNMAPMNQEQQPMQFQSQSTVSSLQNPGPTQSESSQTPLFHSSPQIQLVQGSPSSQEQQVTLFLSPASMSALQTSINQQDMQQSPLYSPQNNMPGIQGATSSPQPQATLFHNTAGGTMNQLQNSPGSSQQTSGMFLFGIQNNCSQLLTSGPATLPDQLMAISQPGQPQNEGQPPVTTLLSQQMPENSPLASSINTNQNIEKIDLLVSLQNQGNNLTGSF
# UniProt Q9NYS0: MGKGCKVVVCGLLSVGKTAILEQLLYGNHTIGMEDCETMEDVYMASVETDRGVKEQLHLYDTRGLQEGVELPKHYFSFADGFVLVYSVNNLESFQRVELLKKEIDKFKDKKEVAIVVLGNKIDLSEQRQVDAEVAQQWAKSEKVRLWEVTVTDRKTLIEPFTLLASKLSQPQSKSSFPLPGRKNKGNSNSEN
# UniProt O14524: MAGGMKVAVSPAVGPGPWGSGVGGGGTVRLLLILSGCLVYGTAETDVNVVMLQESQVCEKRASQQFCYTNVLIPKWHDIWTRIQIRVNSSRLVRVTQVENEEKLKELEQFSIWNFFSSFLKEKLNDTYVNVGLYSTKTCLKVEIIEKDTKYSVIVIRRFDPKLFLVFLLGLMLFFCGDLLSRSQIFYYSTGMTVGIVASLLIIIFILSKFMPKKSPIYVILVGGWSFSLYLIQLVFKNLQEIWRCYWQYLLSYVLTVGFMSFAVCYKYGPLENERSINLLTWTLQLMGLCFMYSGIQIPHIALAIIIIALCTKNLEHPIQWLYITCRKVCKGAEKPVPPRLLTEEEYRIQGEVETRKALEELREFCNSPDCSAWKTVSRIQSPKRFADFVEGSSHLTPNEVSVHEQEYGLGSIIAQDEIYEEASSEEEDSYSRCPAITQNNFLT
# UniProt Q86SG6: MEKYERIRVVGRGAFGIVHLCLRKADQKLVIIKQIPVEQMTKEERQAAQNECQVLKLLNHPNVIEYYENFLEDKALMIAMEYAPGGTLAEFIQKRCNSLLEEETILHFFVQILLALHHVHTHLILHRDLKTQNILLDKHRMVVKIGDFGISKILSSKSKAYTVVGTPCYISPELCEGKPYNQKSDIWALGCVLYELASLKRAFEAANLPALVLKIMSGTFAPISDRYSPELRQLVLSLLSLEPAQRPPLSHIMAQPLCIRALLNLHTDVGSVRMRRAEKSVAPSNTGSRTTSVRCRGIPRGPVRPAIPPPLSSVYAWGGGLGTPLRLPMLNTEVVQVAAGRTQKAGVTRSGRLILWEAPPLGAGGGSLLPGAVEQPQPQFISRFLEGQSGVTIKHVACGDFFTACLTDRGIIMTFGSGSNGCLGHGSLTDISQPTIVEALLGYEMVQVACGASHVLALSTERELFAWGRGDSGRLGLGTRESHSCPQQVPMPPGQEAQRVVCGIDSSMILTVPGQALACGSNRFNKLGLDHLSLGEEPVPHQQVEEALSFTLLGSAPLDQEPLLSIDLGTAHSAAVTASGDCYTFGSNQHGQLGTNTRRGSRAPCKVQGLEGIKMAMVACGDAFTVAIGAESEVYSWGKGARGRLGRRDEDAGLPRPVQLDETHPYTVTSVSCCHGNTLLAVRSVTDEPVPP
# UniProt Q14934: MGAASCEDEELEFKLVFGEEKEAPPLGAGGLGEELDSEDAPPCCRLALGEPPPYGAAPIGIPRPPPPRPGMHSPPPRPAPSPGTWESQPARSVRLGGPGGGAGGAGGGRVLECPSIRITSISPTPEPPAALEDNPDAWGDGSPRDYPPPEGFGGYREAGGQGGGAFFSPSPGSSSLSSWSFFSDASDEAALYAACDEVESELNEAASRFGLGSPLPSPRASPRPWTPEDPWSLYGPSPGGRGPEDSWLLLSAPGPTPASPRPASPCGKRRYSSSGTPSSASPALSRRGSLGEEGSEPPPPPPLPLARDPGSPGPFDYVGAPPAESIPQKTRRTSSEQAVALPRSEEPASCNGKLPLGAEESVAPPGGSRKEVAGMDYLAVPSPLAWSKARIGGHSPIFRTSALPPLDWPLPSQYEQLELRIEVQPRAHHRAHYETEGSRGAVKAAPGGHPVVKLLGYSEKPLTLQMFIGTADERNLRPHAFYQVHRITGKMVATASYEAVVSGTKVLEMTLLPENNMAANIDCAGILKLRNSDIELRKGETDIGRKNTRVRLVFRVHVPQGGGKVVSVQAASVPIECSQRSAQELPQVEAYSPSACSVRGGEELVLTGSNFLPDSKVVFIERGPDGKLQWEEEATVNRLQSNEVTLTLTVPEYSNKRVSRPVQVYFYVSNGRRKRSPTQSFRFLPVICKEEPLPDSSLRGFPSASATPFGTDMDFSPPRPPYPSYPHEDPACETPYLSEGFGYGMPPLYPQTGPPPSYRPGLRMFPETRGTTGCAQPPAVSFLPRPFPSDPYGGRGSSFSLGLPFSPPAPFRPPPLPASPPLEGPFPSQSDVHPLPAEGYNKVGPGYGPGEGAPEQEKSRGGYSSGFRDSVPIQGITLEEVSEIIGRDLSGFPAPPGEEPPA
# Some of the results follow.
# Legend:
# Experiment in all cases: log2 fold change, soluble protein after heating vs DMSO (PISA); higher = thermal stabilisation; K562 lysate, 10 uM; active = over 0.2 and 3.5 SD of the protein, either way, in both replicates (recomputed)
# erlotinib = compound: C#Cc1cccc(Nc2ncnc3cc(OCCOC)c(OCCOC)cc23)c1 [erlotinib]
# Summary of the method: (§1)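 Values give the log-two fold change in thermal stability against solvent controls, from duplicates. Crude K562 extract at 1 mg/mL protein, made by dounce homogenisation in PBS pH 7.4 with 1 mM MgCl2, was treated with 10 μM compound for 30 min. After 3 min heating across 48°C-58°C, aliquots were pooled, adjusted to 0.5% NP-40 at 4°C and centrifuged at 21,000xg for 90 min. The supernatant was measured by TMTpro 16plex LC-MS/MS with channel sums equalised.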
# [1] = compound: C/C(=N\NC(=O)C1=CC(=CC=C1)S(=O)(=O)N2CCOCC2)/C3=C(C=CC(=C3)Cl)O
# Summary of the method: as §1
# [2] = compound: C1=CC(=CC=C1C2=NC3=C(N2)C=C(C=C3)C(=O)N)OC4=CC=C(C=C4)Cl
# Summary of the method: as §1
# [3] = compound: C1=CC2=C(C=CC(=C2)/C=C\3/C(=O)NC(=NCC4=CC=CS4)S3)N=C1
# Summary of the method: as §1
# [4] = compound: C1=CC=C(C=C1)C2=NC(=C(N2)C3=CC=NC=C3)C4=CC(=C(C=C4)Cl)O
# Summary of the method: as §1
# [5] = compound: C1=CC=C2C(=C1)C3=NNC4=CC=CC(=C43)C2=O
# Summary of the method: as §1
# [6] = compound: C1CCN(C1)C(=O)NC2=CC=CC(=C2)NC3=NC=C(C(=N3)NCCC4=CN=CN4)Br
# Summary of the method: as §1
# [7] = compound: C1CN(CCC1(CC2=CC=C(C=C2)Cl)N)C3=NC=NC4=C3C=CN4
# Summary of the method: as §1
# IRAK-1-4 Inhibitor I = compound: C1COCCN1CCN2C3=CC=CC=C3N=C2NC(=O)C4=CC(=CC=C4)[N+](=O)[O-] [IRAK-1-4 Inhibitor I]
# Summary of the method: as §1
# [8] = compound: CC(=O)c1cnc2ccc(-c3cc(Cl)c(O)c(Cl)c3)nc2c1N[C@H]1CC[C@H](CN(C)C)CC1
# Summary of the method: as §1
# ralimetinib = compound: CC(C)(C)Cn1c(N)nc2ccc(-c3[nH]c(C(C)(C)C)nc3-c3ccc(F)cc3)nc21 [ralimetinib]
# Summary of the method: as §1
# [9] = compound: CC(C)(O)CC(=O)NCCn1ccc2ncnc(Nc3ccc(Oc4cccc(C(F)(F)F)c4)c(Cl)c3)c21
# Summary of the method: as §1
# [10] = compound: CC(C)C1=C2N=C(C=C(N2N=C1)NCC3=CC=CC=C3)NCCCCCCN
# Summary of the method: as §1
# [11] = compound: CC1=C(C(CC(=O)N1)C2=CC=C(C=C2)C(F)(F)F)C(=O)NC3=C(C=C4C(=C3)C=NN4)F
# Summary of the method: as §1
# [12] = compound: CC1=C(C2=C(C=C1)C(=O)C3=CC=CC=C3N2CCCN)C
# Summary of the method: as §1
# [13] = compound: CC1=C(C=C(C=C1)NC(=O)C2=CC(=CC=C2)C(C)(C)C#N)NC3=CC4=C(C=C3)N=CN(C4=O)C
# Summary of the method: as §1
# [14] = compound: CC1=C(C=C(C=C1)NC(=O)C2=CC(=CC=C2)N(C)C)NC(=O)C3=CC=C(C=C3)O
# Summary of the method: as §1
# [15] = compound: CC1=CC=C(C=C1)SC2=C3C=C(SC3=CN=C2)C(=O)N
# Summary of the method: as §1
# [16] = compound: C1=CC2=NC=CN=C2C=C1/C=C/3\C(=O)NC(=O)S3
# Summary of the method: as §1
# ibrutinib = compound: C=CC(=O)N1CCC[C@@H](n2nc(-c3ccc(Oc4ccccc4)cc3)c3c(N)ncnc32)C1 [ibrutinib]
# Summary of the method: as §1
Target,log2 fold change (erlotinib),log2 fold change [1],log2 fold change [2],log2 fold change [3],log2 fold change [4],log2 fold change [5],log2 fold change [6],log2 fold change [7],log2 fold change (IRAK-1-4 Inhibitor I),log2 fold change [8],log2 fold change (ralimetinib),log2 fold change [9],log2 fold change [10],log2 fold change [11],log2 fold change [12],log2 fold change [13],log2 fold change [14],log2 fold change [15],log2 fold change [16],log2 fold change (ibrutinib)
NHLRC3 (UniProt Q5JS37),inactive: -0.007,inactive: -0.028,inactive: 0.062,inactive: -0.061,inactive: -0.051,inactive: -0.052,inactive: -0.026,inactive: 0.202,inactive: -0.025,inactive: 0.023,inactive: 0.106,inactive: 0,inactive: -0.047,inactive: -0.026,inactive: 0.035,inactive: -0.062,inactive: -0.003,inactive: -0.015,–,–
NDRG2 (UniProt G3V2A6),–,–,–,–,–,–,–,–,–,inactive: -0.027,–,–,–,inactive: 0.161,–,–,–,inactive: -0.017,inactive: -0.174,inactive: 0.232
NFYC isoform 3 (UniProt Q13952),inactive: -0.136,–,inactive: -0.153,–,–,–,–,–,–,–,–,–,inactive: 0.196,–,inactive: 0.331,–,–,–,–,–
NFRKB isoform 2 (UniProt Q6P4R8),inactive: -0.099,–,inactive: 0.091,–,–,–,inactive: -0.041,inactive: 0.132,–,inactive: -0.031,–,–,inactive: -0.017,inactive: 0.035,–,inactive: 0.124,–,inactive: -0.048,–,–
NECTIN2 isoform 2 (UniProt Q92692),inactive: -0.114,inactive: -0.06,inactive: -0.017,inactive: 0.152,inactive: 0.049,inactive: -0.062,inactive: -0.059,inactive: 0.049,inactive: 0.111,inactive: 0.008,inactive: -0.126,inactive: -0.081,inactive: -0.241,inactive: 0.123,inactive: -0.031,inactive: 0.03,inactive: 0.047,inactive: -0.079,–,–
NDUFAF6 (UniProt Q330K2),inactive: 0.087,–,inactive: -0.186,–,inactive: -0.081,–,inactive: 0.101,inactive: 0.479,inactive: 0.176,inactive: 0.01,inactive: 0.008,inactive: -0.1,inactive: 0.092,inactive: 0.007,inactive: 0.072,inactive: -0.032,inactive: -0.1,inactive: 0.012,inactive: 0.053,inactive: 0.068
NFAT5 isoform 4 (UniProt O94916),–,–,–,–,–,–,–,–,–,–,–,–,–,–,–,inactive: 0.088,–,–,inactive: 0.161,inactive: -0.016
NKIRAS1 (UniProt Q9NYS0),inactive: -0.018,inactive: -0.233,inactive: 0.204,inactive: -0.015,–,inactive: -0.138,inactive: 0.118,inactive: -0.122,–,inactive: -0.072,–,–,inactive: 0.04,inactive: 0.149,inactive: -0.063,–,–,inactive: 0.065,–,–
NEMP1 (UniProt O14524),–,–,–,–,–,–,–,–,–,–,–,–,–,–,–,inactive: -0.11,–,–,inactive: -0.03,inactive: -0.079
NEK8 (UniProt Q86SG6),inactive: -0.102,inactive: -0.519,inactive: 0.043,inactive: 0.25,inactive: -0.072,inactive: -0.135,–,–,inactive: 0.071,–,inactive: 0.014,inactive: 0.076,inactive: 0.151,inactive: 0.038,–,–,inactive: 0.03,–,–,–
NFATC4 isoform 2 (UniProt Q14934),–,active: -0.627,–,inactive: -0.132,–,inactive: -0.224,inactive: -0.07,inactive: -0.012,–,inactive: -0.075,–,–,–,inactive: -0.067,inactive: -0.057,inactive: 0.125,–,inactive: -0.063,inactive: -0.064,inactive: -0.053
NFIL3 (UniProt Q16649),–,–,–,–,inactive: 0.055,–,inactive: 0.084,inactive: -0.332,inactive: 0.02,inactive: 0.493,inactive: 0.004,inactive: 0.004,–,inactive: -0.084,–,–,inactive: 0,inactive: -0.155,–,–

# For reference, part of the list above:
Target,log2 fold change (erlotinib),log2 fold change [1],log2 fold change [2],log2 fold change [3],log2 fold change [4],log2 fold change [5],log2 fold change [6],log2 fold change [7],log2 fold change (IRAK-1-4 Inhibitor I),log2 fold change [8],log2 fold change (ralimetinib),log2 fold change [9],log2 fold change [10],log2 fold change [11],log2 fold change [12],log2 fold change [13],log2 fold change [14],log2 fold change [15],log2 fold change [16],log2 fold change (ibrutinib)
NFRKB isoform 2 (UniProt Q6P4R8),inactive: -0.099,–,inactive: 0.091,–,–,–,inactive: -0.041,inactive: 0.132,–,inactive: -0.031,–,–,inactive: -0.017,inactive: 0.035,–,inactive: 0.124,–,inactive: -0.048,–,–
NECTIN2 isoform 2 (UniProt Q92692),inactive: -0.114,inactive: -0.06,inactive: -0.017,inactive: 0.152,inactive: 0.049,inactive: -0.062,inactive: -0.059,inactive: 0.049,inactive: 0.111,inactive: 0.008,inactive: -0.126,inactive: -0.081,inactive: -0.241,inactive: 0.123,inactive: -0.031,inactive: 0.03,inactive: 0.047,inactive: -0.079,–,–
